PMC7819943, “Rice protein-binding microarrays: a tool to detect cis-acting elements near promoter regions in rice”
The list shows a part of the results.

Protein sequences, listed by entry. Tags and fused reporters are not part of them.
UniProt Q0JBA9, entry or part of it: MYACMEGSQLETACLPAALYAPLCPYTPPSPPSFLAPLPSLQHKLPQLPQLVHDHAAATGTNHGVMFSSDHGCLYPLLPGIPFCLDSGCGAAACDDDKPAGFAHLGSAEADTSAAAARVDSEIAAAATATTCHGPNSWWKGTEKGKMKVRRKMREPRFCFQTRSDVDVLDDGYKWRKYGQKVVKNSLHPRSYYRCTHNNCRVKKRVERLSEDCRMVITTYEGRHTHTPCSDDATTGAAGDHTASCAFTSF

These sequences were tested against OsWRKY34 (Oryza sativa, UniProt Q0JBA9 1-250) (assay: protein-binding microarray (RPBM); PBS, 2% BSA, 51.3 ng/ul salmon testes DNA, 50 uM zinc acetate, 200 nM TF, 25 C, 1 h; high values mean tight binding). Conditions: protein: recombinant; tags: N-terminal polyhistidine and DsRed monomer fusion (pET32a); label: CyDye5-dUTP incorporated in the synthesized complementary strand; 3' TTTTT single-stranded linker to array surface; dsDNA, one strand shown.
In short: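 For the binding signal, per-feature fluorescence intensity was read in arbitrary units on an Axon 4000B scanner. Before scanning, a 2% BSA-blocked custom Agilent array made double-stranded with Cy5-dUTP was washed after 1 h at 25 °C with 200 nM protein and 50 µM zinc acetate. The proteins were Ni–NTA-purified transcription factors with N-terminal polyhistidine and DsRed fusions, expressed in E. coli BL21-CodonPlus.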

Sequence | binding signal
CTGTAAAGTTTGTGTGGGTGGGCTCAGGCCTGTGGTTGTACGGAGTCACCTAGTGCAG | 13900 fluorescence intensity (a.u.)
AGGTTTTTTCAAAATTTTTAACACAATTGTACTACATTTTCGGAGTCACCTAGTGCAG | 8240 fluorescence intensity (a.u.)
CCGGTCCAAAGCCTCGTTTGATCATGGTCTTTTGCCAATACGGAGTCACCTAGTGCAG | 9640 fluorescence intensity (a.u.)
CACGTGGACCACTGTATTCACACTTTTTGATCGATAAGCACGGAGTCACCTAGTGCAG | 9020 fluorescence intensity (a.u.)
CGCGGTCCTAAATGGGCCAGCCCACTATTTGTTTTGCCCACGGAGTCACCTAGTGCAG | 8580 fluorescence intensity (a.u.)
GTATTTTAATGTATGACATTGTTGACTTTTTGATTAACGTCGGAGTCACCTAGTGCAG | 13000 fluorescence intensity (a.u.)
AATATGTGTACGTTTAGTTTCCTGCCAAATTTTGGTAACTCGGAGTCACCTAGTGCAG | 8990 fluorescence intensity (a.u.)
TCGGTTTAGATTTTGCCTTTTTTTAAGTATGTTTTGCTCACGGAGTCACCTAGTGCAG | 8410 fluorescence intensity (a.u.)
CTCTCTCTGTTTCTACATAGTTGATACCGTTGATTTTTTACGGAGTCACCTAGTGCAG | 10600 fluorescence intensity (a.u.)
ACCGCCAAGAGCCAGAGCCCACCCCGCGTCGCGCGCGCAACGGAGTCACCTAGTGCAG | 8180 fluorescence intensity (a.u.)
CCGGCGAGCCCTCCACCGCCGCCGCCGCCGCCGCGAGATGCGGAGTCACCTAGTGCAG | 8350 fluorescence intensity (a.u.)
TGTGGAGTTGTGGTGAGTGTTTGACGAATTTTTTTTTTTTCGGAGTCACCTAGTGCAG | 8900 fluorescence intensity (a.u.)
CGGTTGCGGGTGGGCAGCGGCAGCGTCGCCGGCTGGGGCGCGGAGTCACCTAGTGCAG | 9840 fluorescence intensity (a.u.)
TTGGGAATATCTATGTTTCAGCAACGTTGACTTAATTGTTCGGAGTCACCTAGTGCAG | 14000 fluorescence intensity (a.u.)
TTACTACTCTTTTCTTTGCCCATTACTCTACTCCACTGATCGGAGTCACCTAGTGCAG | 10300 fluorescence intensity (a.u.)
ATCTCTCGCCGCACCGCATCCACGCCGCGTCCCACTTCGCCGGAGTCACCTAGTGCAG | 8700 fluorescence intensity (a.u.)
TCGTCGCCATCGCCATCGCCGCCGCCGCCGCCGCCGCAGGCGGAGTCACCTAGTGCAG | 12600 fluorescence intensity (a.u.)
GATTTTCACTTGTGGTCCTAGACTCACCGTCGGCGAAAATCGGAGTCACCTAGTGCAG | 8600 fluorescence intensity (a.u.)
CCTGTGTGTTGGTGCTGTCGGTATGTGGGTGGTGGTATTTCGGAGTCACCTAGTGCAG | 14600 fluorescence intensity (a.u.)
CACACATGCGCAGCCGCGCCTCCACTTCTCCTCCACACTTCGGAGTCACCTAGTGCAG | 11500 fluorescence intensity (a.u.)
CATTTGTTTGTTTGTGTTATTCTCGGTGCACTAAGAATAGCGGAGTCACCTAGTGCAG | 9360 fluorescence intensity (a.u.)

Sequence | binding signal
TACTTAGAAGTCTGTTGGAGGGCTGATTTTTACCAAATTCCGGAGTCACCTAGTGCAG | 15100 fluorescence intensity (a.u.)
ACTCTTTTTATTTTTGGAGGGTGCTCTATCCAAAGGCCCCCGGAGTCACCTAGTGCAG | 8380 fluorescence intensity (a.u.)
TTGGCCTTTTGAAAGGCTTGGGTTATATTTGGGCTTTTATCGGAGTCACCTAGTGCAG | 9230 fluorescence intensity (a.u.)
TGGAGCTGGTTTTTGGGTGGTGTTTTCTCTGTGATCGTGGCGGAGTCACCTAGTGCAG | 9760 fluorescence intensity (a.u.)
GTCTCATTGTCCTCTAACGTGTGTCACTAACATATAGTTCCGGAGTCACCTAGTGCAG | 8100 fluorescence intensity (a.u.)
TTTATGTAATATATACTCTCGGACCTGTTTGTTTGTTTTTCGGAGTCACCTAGTGCAG | 10200 fluorescence intensity (a.u.)
CGCGTCACCACCCTTCCCTTCCCACCACTTTCCTTCTCTCCGGAGTCACCTAGTGCAG | 8200 fluorescence intensity (a.u.)
GATCAGACACGCCGAAAGTGTCTTCGTCTCTTTCTAATCACGGAGTCACCTAGTGCAG | 8820 fluorescence intensity (a.u.)
TTACTCTATTCATGGCTTTTCCAAGCTTGTCGTGCCCGTACGGAGTCACCTAGTGCAG | 8230 fluorescence intensity (a.u.)
GTGGCATCAATTATCTTCTCGACTAGCGTCGCCCAAATCTCGGAGTCACCTAGTGCAG | 8040 fluorescence intensity (a.u.)
ATGTGTATGATGTGTTTGTTTATGTGTGGACTTTATAATACGGAGTCACCTAGTGCAG | 9750 fluorescence intensity (a.u.)
TGTTTATCACATGTTTTGTTACGCCAAATGGAGTGCCATTCGGAGTCACCTAGTGCAG | 8390 fluorescence intensity (a.u.)
CCATTTTCCCTTTTACATGTGTCGAATTTTTATTAGGCTTCGGAGTCACCTAGTGCAG | 12700 fluorescence intensity (a.u.)
GCACCACCGCCTTCGGTCAATAGGAGTAGGGTTATTACCCCGGAGTCACCTAGTGCAG | 8250 fluorescence intensity (a.u.)
ACTTTTTTACATGACTTCACTAGATTGCTCATTCTTTCTCCGGAGTCACCTAGTGCAG | 8120 fluorescence intensity (a.u.)
CCCCTGTGCCACCCCAATTCAATTTTGATTTTTTTTTAAACGGAGTCACCTAGTGCAG | 8080 fluorescence intensity (a.u.)
GTCGAATCGAATTAACCTTTTATTATTCTTTATTATTTTGCGGAGTCACCTAGTGCAG | 9080 fluorescence intensity (a.u.)
CTAATTGCATAGACGTAATATTTGTGGACTTTTTTTTTCTCGGAGTCACCTAGTGCAG | 12900 fluorescence intensity (a.u.)
TGTTGTTTCTATCCATCTCAGGCCAGCTTTGCAAACGACTCGGAGTCACCTAGTGCAG | 10900 fluorescence intensity (a.u.)
CACTATGATTATTGTTGTTACACTATCAGCCTCTGCTCAACGGAGTCACCTAGTGCAG | 8360 fluorescence intensity (a.u.)
CCATCCACCATTCACTTTCCCACCTACCTCCACTATTTATCGGAGTCACCTAGTGCAG | 9720 fluorescence intensity (a.u.)

Looked up above.
GATCAGACACGCCGAAAGTGTCTTCGTCTCTTTCTAATCACGGAGTCACCTAGTGCAG | binding signal: 8820 fluorescence intensity (a.u.)
ATGTGTATGATGTGTTTGTTTATGTGTGGACTTTATAATACGGAGTCACCTAGTGCAG | binding signal: 9750 fluorescence intensity (a.u.)
